Assay results taken from paper PMC8009681.
No constants are given. Whether binding was seen depends on the method and setting. Some results given as binding are weak or reduced against the parent protein; the word gives no strength. Sequences can lack the tags named with a protein.

How the values were obtained:
[1] = molecular target: T1, phyA-BD (Arabidopsis thaliana) (UniProt P14712); test: two-hybrid; growth assay, AH109, CSM LTH- plates with 20 μM phycocyanobilin and 5 mM 3-AT, FR light (740 nm; phyA Pr), 26°C
T1 sequence: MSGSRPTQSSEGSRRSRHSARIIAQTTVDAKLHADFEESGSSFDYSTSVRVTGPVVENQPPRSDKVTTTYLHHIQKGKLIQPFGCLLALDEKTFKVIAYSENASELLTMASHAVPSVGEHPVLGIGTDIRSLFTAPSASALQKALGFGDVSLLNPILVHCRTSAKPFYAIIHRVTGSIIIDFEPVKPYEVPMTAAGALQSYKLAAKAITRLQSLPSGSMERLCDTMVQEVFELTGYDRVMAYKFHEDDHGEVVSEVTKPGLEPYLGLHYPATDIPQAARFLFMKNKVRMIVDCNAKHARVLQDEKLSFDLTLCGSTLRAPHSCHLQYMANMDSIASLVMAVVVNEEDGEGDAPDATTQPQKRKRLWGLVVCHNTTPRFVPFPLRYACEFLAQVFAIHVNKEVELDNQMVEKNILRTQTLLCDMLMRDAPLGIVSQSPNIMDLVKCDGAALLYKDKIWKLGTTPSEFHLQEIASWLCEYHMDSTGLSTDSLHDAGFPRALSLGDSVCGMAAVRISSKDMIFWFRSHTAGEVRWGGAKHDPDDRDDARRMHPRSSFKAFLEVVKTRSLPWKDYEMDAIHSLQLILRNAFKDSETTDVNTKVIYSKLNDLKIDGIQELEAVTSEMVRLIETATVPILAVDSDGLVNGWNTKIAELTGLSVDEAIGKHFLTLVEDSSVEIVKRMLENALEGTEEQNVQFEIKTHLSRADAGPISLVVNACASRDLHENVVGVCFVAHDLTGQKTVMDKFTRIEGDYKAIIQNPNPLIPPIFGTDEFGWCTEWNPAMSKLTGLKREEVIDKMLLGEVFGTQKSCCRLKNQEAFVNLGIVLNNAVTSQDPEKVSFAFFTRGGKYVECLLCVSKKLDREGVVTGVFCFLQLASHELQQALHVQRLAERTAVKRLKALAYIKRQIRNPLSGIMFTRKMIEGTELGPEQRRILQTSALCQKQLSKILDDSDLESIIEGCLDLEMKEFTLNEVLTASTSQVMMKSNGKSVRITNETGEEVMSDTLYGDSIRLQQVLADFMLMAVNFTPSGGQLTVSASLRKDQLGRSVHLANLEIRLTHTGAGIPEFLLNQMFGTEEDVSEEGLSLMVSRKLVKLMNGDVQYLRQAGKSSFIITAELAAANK

[2] = molecular target: T1, phyA-BD (Arabidopsis thaliana); test: yeast three-hybrid competition assay; AH109 with a two-hybrid pair and a NOT1 fragment as potential competitor; R light, CSM LTH- plates with 20 μM phycocyanobilin and increasing amounts of 3-AT
[3] = molecular target: T1, phyA-BD (Arabidopsis thaliana); test: two-hybrid; growth assay, AH109, CSM LTH- plates with 20 μM phycocyanobilin and 3-AT (5, 10 or 30 mM by panel), R light (660 nm; phyA Pfr), 26°C

binding [2]: binds | binding [3]: binds
B1: AD-FHY1 (protein, UniProt Q8S4Q6 1-202)
chain: MPEVEVDNNNEKPSEINSFHHMIISSSKNVLKMEEVEVSKKRKFQTDQSDELSLLPLSKHTCFANVACSENTNGNSEIDTEYSMSSYVNSTTSMECNNDIEMKEESSGSCGEDKMISFESHLDYIYGTQNLEDFSEKVIENILYLDEQEEEEEDAKGCSSNAAKFVLSSGRWTVNQDDSTLHETKKPTIDQEFEQYFSTLML
binding [1]: no binding (condition: FR light (phyA in the Pr state))
